The values that follow come from PMC9905709.

The series deals with DROSHA D3-G2 complex (DROSHA fragment D3 + DGCR8 fragment G2) + SRSF7. Nature of the series: EMSA. The following applies: 2 mM EDTA, ternary complex supershift, denser than DROSHA/RNA band, EMSA: 50 mM Tris-HCl pH 7.5, 125 mM NaCl, 10% glycerol, 0.2 mg/ml BSA, 1 mM DTT, 12 ul, on ice 1 h, 4% native PAGE, 1x TBE, 4 C, ethidium bromide, recombinant protein. Background: A gel shift assay detects complexes by their altered migration in electrophoresis.

The exact form of at least one protein or probe is not confirmed.

“GGGCGGACAGACAGACAGUGCAGUCACCCAUAAAGUAGAAAGCACUACUAACAGCACUGGAGGGUGUAGUGUUUCCUACUUUAUGGAUGAGUGUACUGUGGGCUUCGG [pri-miR-142 (CNNC, CUUC WT)]”: the binding result is listed as “binds”.
